# Results reported in patent US8678046B2, “Apparatus and methods for loading a drug eluting medical device” (Medtronic Vascular, Inc., priority 2009, dated 2014).
# At least one read-out could not be matched to a standard name with certainty. At least one structure is not confirmed: it was looked up by name or label, or the drawing left a doubt.
# Assay: Solubility of sirolimus in solvents / dispersion media
# Format: physicochemical
smiles,measurement,setting,value
CO[C@H]1C[C@@H]2CC[C@@H](C)[C@@](O)(O2)C(=O)C(=O)N2CCCC[C@H]2C(=O)O[C@H]([C@H](C)C[C@@H]2CC[C@@H](O)[C@H](OC)C2)CC(=O)[C@H](C)/C=C(\C)[C@@H](O)[C@@H](OC)C(=O)[C@H](C)C[C@H](C)/C=C/C=C/C=C/1C [sirolimus],ability of high capacity solvent to dissolve therapeutic substance (concentration),"high capacity solvents: tetrahydrofuran (THF), di-chloromethane (DCM), chloroform, di-methyl-sulfoxide (DMSO)",greater than 500 mg of substance per milliliter of solvent
same,ability of low capacity solvent to dissolve therapeutic substance (concentration),"low capacity solvents: methanol, ethanol, propanol, acetonitrile, ethyl lactate, acetone, tetrahydrafuran/water (9:1 weight ratio), 'typically below'",below 500 mg of drug per milliliter solvent
same,solubilization by supercritical CO2,supercritical carbon dioxide (SCCO2),low capacity
